No constants are given. Whether binding was seen depends on the method and setting. Binding seen in cells or lysates may run through a third protein. Here binding means that the protein was enriched with, or labelled near, the bait; the list need not be complete. Tags and fused reporters may be left off the sequences shown.

Protein sequences, listed by entry. Tags and fused reporters are not part of them.
UniProt Q9BXL6: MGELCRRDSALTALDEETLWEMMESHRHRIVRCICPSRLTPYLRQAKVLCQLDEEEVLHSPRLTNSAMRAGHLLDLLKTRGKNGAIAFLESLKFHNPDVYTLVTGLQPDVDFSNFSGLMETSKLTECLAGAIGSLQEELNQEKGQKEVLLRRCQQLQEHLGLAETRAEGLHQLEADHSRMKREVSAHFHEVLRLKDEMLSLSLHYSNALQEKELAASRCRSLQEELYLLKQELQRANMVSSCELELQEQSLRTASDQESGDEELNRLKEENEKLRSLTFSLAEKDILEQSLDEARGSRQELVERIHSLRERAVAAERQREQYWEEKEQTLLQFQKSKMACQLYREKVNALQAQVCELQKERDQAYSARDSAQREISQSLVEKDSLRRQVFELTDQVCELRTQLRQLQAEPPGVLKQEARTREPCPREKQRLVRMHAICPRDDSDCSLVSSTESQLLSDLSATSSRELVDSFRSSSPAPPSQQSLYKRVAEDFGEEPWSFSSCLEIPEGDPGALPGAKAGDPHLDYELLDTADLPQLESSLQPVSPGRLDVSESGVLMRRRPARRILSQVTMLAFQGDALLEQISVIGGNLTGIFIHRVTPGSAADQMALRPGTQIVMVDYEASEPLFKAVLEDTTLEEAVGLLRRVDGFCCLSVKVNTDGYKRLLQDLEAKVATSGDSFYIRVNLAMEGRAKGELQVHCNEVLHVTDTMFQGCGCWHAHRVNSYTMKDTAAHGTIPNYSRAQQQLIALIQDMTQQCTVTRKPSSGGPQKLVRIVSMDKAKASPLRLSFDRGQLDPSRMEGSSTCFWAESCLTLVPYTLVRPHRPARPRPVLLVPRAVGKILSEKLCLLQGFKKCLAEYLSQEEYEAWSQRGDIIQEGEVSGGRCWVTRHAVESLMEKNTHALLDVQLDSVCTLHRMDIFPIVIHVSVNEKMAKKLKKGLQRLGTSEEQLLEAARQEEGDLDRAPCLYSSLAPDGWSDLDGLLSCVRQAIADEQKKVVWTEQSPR

This assay has as its target T1, Flag-tagged TRIM41 (full length) (mouse) (UniProt Q5NCC3).
T1 sequence: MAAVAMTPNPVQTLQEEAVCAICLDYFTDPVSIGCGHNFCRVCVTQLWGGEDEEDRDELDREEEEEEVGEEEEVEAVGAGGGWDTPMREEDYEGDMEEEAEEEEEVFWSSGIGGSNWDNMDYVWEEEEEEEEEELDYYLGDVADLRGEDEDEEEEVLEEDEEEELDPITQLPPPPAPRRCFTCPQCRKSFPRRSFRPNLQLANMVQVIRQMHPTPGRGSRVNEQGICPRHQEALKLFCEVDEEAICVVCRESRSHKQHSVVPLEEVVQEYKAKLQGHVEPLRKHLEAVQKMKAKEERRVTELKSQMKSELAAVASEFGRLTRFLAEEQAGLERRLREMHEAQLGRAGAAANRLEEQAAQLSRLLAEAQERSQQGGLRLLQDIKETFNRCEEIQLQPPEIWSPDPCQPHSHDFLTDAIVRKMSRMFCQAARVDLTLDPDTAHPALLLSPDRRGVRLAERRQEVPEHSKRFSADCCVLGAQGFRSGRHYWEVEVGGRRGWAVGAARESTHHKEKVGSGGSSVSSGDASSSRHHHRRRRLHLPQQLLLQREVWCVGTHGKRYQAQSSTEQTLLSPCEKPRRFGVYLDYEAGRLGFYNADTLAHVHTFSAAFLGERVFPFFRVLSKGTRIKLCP
Nature of the assay: affinity purification with mass spectrometry; Flag-tagged TRIM41 overexpressed in HEK293T cells, immunoprecipitation, then nano-UPLC electrospray tandem MS.

With CARD14 (from UniProt Q9BXL6 1-1004), the binding entry is listed as “binds”.
